# In the supplement of paper PMC4604168 (melanoma cell lines):
# The list shows a part of the results. Single values are uncertain, as repeats are few or missing.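 Imaging used 1,536-well plates; nuclei positive for cleaved PARP by antibody were divided by total DNA-stained nuclei to yield the apoptosis fraction. Doses for screening kept most cells viable, and cell lines differ markedly in resting and induced cleaved-PARP levels.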
# Tested on: A101D
# Experiment: cleaved PARP positive nuclei fraction relative to DMSO control; melanoma cells; higher = more apoptosis
# Conditions: library dose: low library concentration; 72 h
row,SMILES,cleaved PARP positive nuclei fraction [%]
1,"CC(=O)O[C@@]12CO[C@@H]1C[C@H](O)[C@@]1(C)C(=O)[C@H](O)C3=C(C)[C@@H](OC(=O)[C@H](O)[C@@H](NC(=O)OC(C)(C)C)c4ccccc4)C[C@@](O)([C@@H](OC(=O)c4ccccc4)[C@H]21)C3(C)C [Docetaxel] + CCCCCCCCCCCC1=C(O)C(=O)C=C(O)C1=O [Embelin] (first compound 0.0001 µM, partner dose 1.2 µM)",70.8
2,"NC1(c2ccc(-c3nc4ccn5c(=O)[nH]nc5c4cc3-c3ccccc3)cc2)CCC1 + CC(C)CCN1c2nc(Nc3cc(F)c(O)c(F)c3)ncc2N(C)C(=O)C1C [BID1870] (first compound 0.4 µM, partner dose 0.2 µM)",17.1
3,"CS(=O)(=O)c1ccc(C(=O)Nc2ccc(Cl)c(-c3ccccn3)c2)c(Cl)c1 [vismodegib] + CCCCCCCCCCCC1=C(O)C(=O)C=C(O)C1=O [Embelin] (first compound 1 µM, partner dose 1.2 µM)",17.2
4,"COc1ccc(C2=N[C@@H](c3ccc(Cl)cc3)[C@@H](c3ccc(Cl)cc3)N2C(=O)N2CCNC(=O)C2)c(OC(C)C)c1 [Nutlin-3] + COc1ccc(-c2ccc3c(N4CCOCC4)nc(N4C[C@@H](C)O[C@@H](C)C4)nc3n2)cc1CO [KU0063794] (first compound 0.1 µM, partner dose 0.02 µM)",22.6
5,"Cn1cnc2c(F)c(Nc3ccc(Br)cc3Cl)c(C(=O)NOCCO)cc21 [selumetinib] + CC(C)CCN1c2nc(Nc3cc(F)c(O)c(F)c3)ncc2N(C)C(=O)C1C [BID1870] (first compound 0.015 µM, partner dose 0.2 µM)",96.8
6,"CC1(C)CCC(c2ccc(Cl)cc2)=C(CN2CCN(c3ccc(C(=O)NS(=O)(=O)c4ccc(N[C@H](CCN5CCOCC5)CSc5ccccc5)c(S(=O)(=O)C(F)(F)F)c4)cc3)CC2)C1 + Cc1cc([N+](=O)[O-])ccc1NS(=O)(=O)c1cc(Cl)ccc1Cl [FH535] (first compound 0.4 µM, partner dose 1 µM)",70.4
7,"CCN(CC)CCNC(=O)c1c(C)[nH]c(/C=C2\C(=O)Nc3ccc(F)cc32)c1C [sunitinib] + Cc1cc([N+](=O)[O-])ccc1NS(=O)(=O)c1cc(Cl)ccc1Cl [FH535] (first compound 0.4 µM, partner dose 1 µM)",42.2
8,"Cn1sc(=O)n(Cc2ccccc2)c1=O + COc1cc2ncnc(Nc3ccc(Oc4ccccc4)cc3)c2cc1OC [SrcI1] (first compound 0.4 µM, partner dose 2 µM)",28.6
9,"NC1(c2ccc(-c3nc4ccn5c(=O)[nH]nc5c4cc3-c3ccccc3)cc2)CCC1 + COC(=O)c1sccc1S(=O)(=O)Nc1ccc(Nc2ccccc2)cc1OC [GSK0660] (first compound 0.4 µM, partner dose 1 µM)",15.5
10,"CN(c1ncccc1CNc1nc(Nc2ccc3c(c2)CC(=O)N3)ncc1C(F)(F)F)S(C)(=O)=O + CC(C)CCN1c2nc(Nc3cc(F)c(O)c(F)c3)ncc2N(C)C(=O)C1C [BID1870] (first compound 0.08 µM, partner dose 0.2 µM)",10500
11,"Cn1sc(=O)n(Cc2ccccc2)c1=O + O=C(Nc1ccccc1)c1cc([N+](=O)[O-])ccc1Cl [GW9662] (first compound 0.4 µM, partner dose 2 µM)",32.8
12,"NC(=O)c1ccc(N(C(N)=O)c2c(F)cccc2F)nc1-c1ccc(F)cc1F + Cn1cc(/C=C2\C(=O)Nc3cccnc32)c2ccccc21 [GW441756] (first compound 0.4 µM, partner dose 0.4 µM)",42.2
13,"CCN(CC)CCNC(=O)c1c(C)[nH]c(/C=C2\C(=O)Nc3ccc(F)cc32)c1C [sunitinib] + COC(=O)c1sccc1S(=O)(=O)Nc1ccc(Nc2ccccc2)cc1OC [GSK0660] (first compound 0.4 µM, partner dose 1 µM)",49.2
14,"Cn1sc(=O)n(Cc2ccccc2)c1=O + CC(C)CCN1c2nc(Nc3cc(F)c(O)c(F)c3)ncc2N(C)C(=O)C1C [BID1870] (first compound 0.4 µM, partner dose 0.2 µM)",23.9
15,"Cn1sc(=O)n(Cc2ccccc2)c1=O + COc1cc(N2CCC(N3CCN(C)CC3)CC2)ccc1Nc1ncc(Cl)c(Nc2ccccc2S(=O)(=O)C(C)C)n1 [NVP-TAE684] (first compound 0.4 µM, partner dose 0.08 µM)",8.48
16,"NC1(c2ccc(-c3nc4ccn5c(=O)[nH]nc5c4cc3-c3ccccc3)cc2)CCC1 + CCc1ccc(CCOc2ccc(CC3SC(=O)NC3=O)cc2)nc1 [pioglitazone] (first compound 0.4 µM, partner dose 2 µM)",29.1
17,"NC(=O)c1ccc(N(C(N)=O)c2c(F)cccc2F)nc1-c1ccc(F)cc1F + COc1cc(N2CCC(N3CCN(C)CC3)CC2)ccc1Nc1ncc(Cl)c(Nc2ccccc2S(=O)(=O)C(C)C)n1 [NVP-TAE684] (first compound 0.4 µM, partner dose 0.08 µM)",54.3
18,"NC1(c2ccc(-c3nc4ccn5c(=O)[nH]nc5c4cc3-c3ccccc3)cc2)CCC1 + Cc1cc([N+](=O)[O-])ccc1NS(=O)(=O)c1cc(Cl)ccc1Cl [FH535] (first compound 0.4 µM, partner dose 1 µM)",17.2
19,"Cn1cnc2c(F)c(Nc3ccc(Br)cc3Cl)c(C(=O)NOCCO)cc21 [selumetinib] + Cn1cc(/C=C2\C(=O)Nc3cccnc32)c2ccccc21 [GW441756] (first compound 0.015 µM, partner dose 0.4 µM)",12.3
20,"CC(=O)O[C@@]12CO[C@@H]1C[C@H](O)[C@@]1(C)C(=O)[C@H](O)C3=C(C)[C@@H](OC(=O)[C@H](O)[C@@H](NC(=O)OC(C)(C)C)c4ccccc4)C[C@@](O)([C@@H](OC(=O)c4ccccc4)[C@H]21)C3(C)C [Docetaxel] + COc1ccc2c(c1)CCC1C2CCC2(C)C(NCCCCCCN3C(=O)C=CC3=O)CCC12 [U73122] (first compound 0.0001 µM, partner dose 0.4 µM)",45.4
21,"CN(c1ncccc1CNc1nc(Nc2ccc3c(c2)CC(=O)N3)ncc1C(F)(F)F)S(C)(=O)=O + Oc1cc(-c2nc(-c3ccccc3)[nH]c2-c2ccncc2)ccc1Cl [L779450] (first compound 0.08 µM, partner dose 0.2 µM)",45.7
22,"CCN(CC)CCNC(=O)c1c(C)[nH]c(/C=C2\C(=O)Nc3ccc(F)cc32)c1C [sunitinib] + O=c1cc(-c2cccc3c2Sc2ccccc2S3)oc(N2CCOCC2)c1 [KU55933] (first compound 0.4 µM, partner dose 1 µM)",23.8
23,"CC1(C)CCC(c2ccc(Cl)cc2)=C(CN2CCN(c3ccc(C(=O)NS(=O)(=O)c4ccc(N[C@H](CCN5CCOCC5)CSc5ccccc5)c(S(=O)(=O)C(F)(F)F)c4)cc3)CC2)C1 + COC(=O)c1sccc1S(=O)(=O)Nc1ccc(Nc2ccccc2)cc1OC [GSK0660] (first compound 0.4 µM, partner dose 1 µM)",67.6
24,"COc1ccc(C2=N[C@@H](c3ccc(Cl)cc3)[C@@H](c3ccc(Cl)cc3)N2C(=O)N2CCNC(=O)C2)c(OC(C)C)c1 [Nutlin-3] + COc1ccc(COc2ccc(Cc3cnc(N)nc3N)cc2OC)cc1 [GW2580] (first compound 0.1 µM, partner dose 1 µM)",31.3
25,"Cn1cnc2c(F)c(Nc3ccc(Br)cc3Cl)c(C(=O)NOCCO)cc21 [selumetinib] + COc1ccc2c(c1)CCC1C2CCC2(C)C(NCCCCCCN3C(=O)C=CC3=O)CCC12 [U73122] (first compound 0.015 µM, partner dose 0.4 µM)",66.1
26,"CC(=O)O[C@@]12CO[C@@H]1C[C@H](O)[C@@]1(C)C(=O)[C@H](O)C3=C(C)[C@@H](OC(=O)[C@H](O)[C@@H](NC(=O)OC(C)(C)C)c4ccccc4)C[C@@](O)([C@@H](OC(=O)c4ccccc4)[C@H]21)C3(C)C [Docetaxel] + Cn1cc(/C=C2\C(=O)Nc3cccnc32)c2ccccc21 [GW441756] (first compound 0.0001 µM, partner dose 0.4 µM)",29.8
27,"NC(=O)c1ccc(N(C(N)=O)c2c(F)cccc2F)nc1-c1ccc(F)cc1F + O=C(Nc1ccccc1)c1cc([N+](=O)[O-])ccc1Cl [GW9662] (first compound 0.4 µM, partner dose 2 µM)",49.5
28,"CC1(C)CCC(c2ccc(Cl)cc2)=C(CN2CCN(c3ccc(C(=O)NS(=O)(=O)c4ccc(N[C@H](CCN5CCOCC5)CSc5ccccc5)c(S(=O)(=O)C(F)(F)F)c4)cc3)CC2)C1 + O=C(Nc1ccccc1)c1cc([N+](=O)[O-])ccc1Cl [GW9662] (first compound 0.4 µM, partner dose 2 µM)",58
29,"CCN(CC)CCNC(=O)c1c(C)[nH]c(/C=C2\C(=O)Nc3ccc(F)cc32)c1C [sunitinib] + COc1ccc(COc2ccc(Cc3cnc(N)nc3N)cc2OC)cc1 [GW2580] (first compound 0.4 µM, partner dose 1 µM)",44.4
30,"NC(=O)c1ccc(N(C(N)=O)c2c(F)cccc2F)nc1-c1ccc(F)cc1F + O=c1cc(-c2cccc3c2Sc2ccccc2S3)oc(N2CCOCC2)c1 [KU55933] (first compound 0.4 µM, partner dose 1 µM)",20.9

# Single values from the results shown.
# Value for NC1(c2ccc(-c3nc4ccn5c(=O)[nH]nc5c4cc3-c3ccccc3)cc2)CCC1 + CCc1ccc(CCOc2ccc(CC3SC(=O)NC3=O)cc2)nc1 [pioglitazone] (first compound 0.4 µM, partner dose 2 µM) under cleaved PARP positive nuclei fraction [%]: 29.1
# Value for CCN(CC)CCNC(=O)c1c(C)[nH]c(/C=C2\C(=O)Nc3ccc(F)cc32)c1C [sunitinib] + COC(=O)c1sccc1S(=O)(=O)Nc1ccc(Nc2ccccc2)cc1OC [GSK0660] (first compound 0.4 µM, partner dose 1 µM) under cleaved PARP positive nuclei fraction [%]: 49.2
